# Measurements taken from article PMC4833305.
# Results are given in words; binding and its absence hold for the method and conditions named. Some binding calls cover weakened binding; strength is not graded here.
# B1: IKKα, O15111 1-745 (enzyme)
# chain: MERPPGLRPGAGGPWEMRERLGTGGFGNVCLYQHRELDLKIAIKSCRLELSTKNRERWCHEIQIMKKLNHANVVKACDVPEELNILIHDVPLLAMEYCSGGDLRKLLNKPENCCGLKESQILSLLSDIGSGIRYLHENKIIHRDLKPENIVLQDVGGKIIHKIIDLGYAKDVDQGSLCTSFVGTLQYLAPELFENKPYTATVDYWSFGTMVFECIAGYRPFLHHLQPFTWHEKIKKKDPKCIFACEEMSGEVRFSSHLPQPNSLCSLVVEPMENWLQLMLNWDPQQRGGPVDLTLKQPRCFVLMDHILNLKIVHILNMTSAKIISFLLPPDESLHSLQSRIERETGINTGSQELLSETGISLDPRKPASQCVLDGVRGCDSYMVYLFDKSKTVYEGPFASRSLSDCVNYIVQDSKIQLPIIQLRKVWAEAVHYVSGLKEDYSRLFQGQRAAMLSLLRYNANLTKMKNTLISASQQLKAKLEFFHKSIQLDLERYSEQMTYGISSEKMLKAWKEMEEKAIHYAEVGVIGYLEDQIMSLHAEIMELQKSPYGRRQGDLMESLEQRAIDLYKQLKHRPSDHSYSDSTEMVKIIVHTVQSQDRVLKELFGHLSKLLGCKQKIIDLLPKVEVALSNIKEADNTVMFMQGKRQKEIWHLLKIACTQSSARSLVGSSLEGAVTPQTSAWLPPTSAEHDHSLSCVVTPQDGETSAQMIEENLNCLGHLSTIIHEANEEQGNSMMNLDWSWLTE
# Target: NEMO-FLAG (human), Q9Y6K9
# Test: co-purification of the complex from cells with a FLAG-tagged subunit; IKK complex purified from NEMO-FLAG knock-in cells; silver staining and immunoblotting of the purified complex
# Settings: remark: other sources report otherwise
binder,measurement,value
B1,binding,binds
